The source of these data is publication PMC10450504.

No constants are given. Whether binding was seen depends on the method and setting. In cells and extracts the contact can be indirect. Here binding means that the protein was enriched with, or labelled near, the bait; the list need not be complete. Tags and fused reporters may be left off the sequences shown.

The experiment concerns the target T1, mouse CD9-GFP expressed in HEK293T/17 cells (mouse) (UniProt P40240).
T1 sequence: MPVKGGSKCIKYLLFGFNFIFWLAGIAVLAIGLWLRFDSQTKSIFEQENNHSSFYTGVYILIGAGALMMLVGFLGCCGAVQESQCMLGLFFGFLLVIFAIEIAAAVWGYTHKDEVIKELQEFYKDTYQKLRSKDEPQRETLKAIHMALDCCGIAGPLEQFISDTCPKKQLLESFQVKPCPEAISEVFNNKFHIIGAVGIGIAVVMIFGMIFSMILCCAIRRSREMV
Briefly: affinity purification with mass spectrometry; anti-GFP co-immunoprecipitates from co-transfected HEK293T/17 cells digested on the beads with trypsin; LC-MS/MS (timsTOF Pro), search against the Mus musculus database.

B1: mouse Juno expressed in HEK293T/17 cells (receptor, UniProt Q9EQF4 20-221)
chain: GDKLLSVCMNSKRHKQEPGPEDELYQECRPWEDNACCTRSTSWEAHLEEPLLFNFSMMHCGLLTPACRKHFIQAICFHECSPNLGPWIQPVVPNGQEEQRVWGVPLCQEDCEDWWRACHSSLTCKSNWLHGWDWSEEKKHCPAHEPCLPFSYHFPTPDDLCEKIWNNTFKASPERRNSGRCLQKWFEPTLSNPNVEVALHFA
As to B1, the binding entry is given as “binds”.
